{"source": "PubChem BioAssay AID1508588 (Peter MacCallum Cancer Centre, 2020)", "purpose": "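Which gene losses make BRAF-mutant melanoma cells more responsive to vemurafenib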 (primary screen)", "cell system": "human WM266.4 melanoma cells (BRAF V600 mutant)", "reagents": "siRNA pool against human genes, 40 nM", "time to read-out": "96 h from transfection to read-out", "treatment": "vemurafenib 300 nM (about IC25), added 48 h after transfection, for 48 h; comparison arm got DMSO vehicle only", "measured": "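Cell gain (DAPI nuclei at end minus before drug, mean of two replicates) and medium lactate by absorbance per cell, both as ratio to non-targeting siRNA, also grouped into fold-change classes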", "reading the numbers": "cell gain with vemurafenib: higher = more cell gain than with non-targeting siRNA; lactate per cell with vemurafenib: higher = more lactate made per cell", "rule for the call": "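a knock-down counts as enhancing when its fold-change classes with vehicle and with vemurafenib, taken together, show a stronger drug effect on cell gain or lactate per cell; exact class pairs not stated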", "meaning of the calls": "active = enhances vemurafenib effect; inactive = no enhancement seen", "note": "Shown is an unselected part of about 18,000 reagents. 790 of all reagents (4.4%) were called active. 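Calls rest on a combination of fold-change classes in drug and vehicle arms, not all shown here.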 Unmarked entries are inactive. The numbers tell different reagents against one gene apart. Some reagents were tested in more than one well and are listed for each."}
{"Gene":"DRP2 (GeneID 1821)","reagent no.":1,"cell gain with vemurafenib":0.97,"lactate per cell with vemurafenib":0.86}
{"Gene":"NPNT (GeneID 255743)","reagent no.":1,"cell gain with vemurafenib":0.92,"lactate per cell with vemurafenib":0.84}
{"Gene":"CFL1 (GeneID 1072)","reagent no.":1,"cell gain with vemurafenib":0.56,"lactate per cell with vemurafenib":0.5}
{"Gene":"GALK2 (GeneID 2585)","reagent no.":1,"cell gain with vemurafenib":0.36,"lactate per cell with vemurafenib":1.31}
{"Gene":"PCDHGA12 (GeneID 26025)","reagent no.":1,"cell gain with vemurafenib":0.87,"lactate per cell with vemurafenib":0.58}
{"Gene":"SMPDL3B (GeneID 27293)","reagent no.":1,"cell gain with vemurafenib":0.78,"lactate per cell with vemurafenib":0.96}
{"Gene":"IRF9 (GeneID 10379)","reagent no.":1,"cell gain with vemurafenib":0.26,"lactate per cell with vemurafenib":1}
{"Gene":"SLC26A7 (GeneID 115111)","reagent no.":1,"cell gain with vemurafenib":0.75,"lactate per cell with vemurafenib":0.82}
{"Gene":"DALRD3 (GeneID 55152)","reagent no.":1,"cell gain with vemurafenib":0.79,"lactate per cell with vemurafenib":1.08}
{"Gene":"FANCM (GeneID 57697)","reagent no.":1,"cell gain with vemurafenib":"0.08 (active)","lactate per cell with vemurafenib":0.46}
{"Gene":"LYZL6 (GeneID 57151)","reagent no.":1,"cell gain with vemurafenib":0.14,"lactate per cell with vemurafenib":2.46}
{"Gene":"FAM163A (GeneID 148753)","reagent no.":1,"cell gain with vemurafenib":0.94,"lactate per cell with vemurafenib":0.53}
{"Gene":"IFT80 (GeneID 57560)","reagent no.":1,"cell gain with vemurafenib":0.46,"lactate per cell with vemurafenib":0.62}
{"Gene":"PUSL1 (GeneID 126789)","reagent no.":1,"cell gain with vemurafenib":0.58,"lactate per cell with vemurafenib":1.13}
{"Gene":"GRIK5 (GeneID 2901)","reagent no.":1,"cell gain with vemurafenib":0.65,"lactate per cell with vemurafenib":1.74}
{"Gene":"TP53BP2 (GeneID 7159)","reagent no.":1,"cell gain with vemurafenib":0.29,"lactate per cell with vemurafenib":0.22}
{"Gene":"DDX50 (GeneID 79009)","reagent no.":1,"cell gain with vemurafenib":1,"lactate per cell with vemurafenib":0.91}
{"Gene":"PHF12 (GeneID 57649)","reagent no.":1,"cell gain with vemurafenib":1.05,"lactate per cell with vemurafenib":0.7}
{"Gene":"DBP (GeneID 1628)","reagent no.":1,"cell gain with vemurafenib":0.56,"lactate per cell with vemurafenib":1.15}
{"Gene":"SCD5 (GeneID 79966)","reagent no.":1,"cell gain with vemurafenib":0.46,"lactate per cell with vemurafenib":0.96}
{"Gene":"CCDC14 (GeneID 64770)","reagent no.":1,"cell gain with vemurafenib":0.95,"lactate per cell with vemurafenib":1.14}
{"Gene":"KCNJ13 (GeneID 3769)","reagent no.":1,"cell gain with vemurafenib":0.51,"lactate per cell with vemurafenib":1.07}
{"Gene":"RNF167 (GeneID 26001)","reagent no.":1,"cell gain with vemurafenib":0.54,"lactate per cell with vemurafenib":1.12}
{"Gene":"RNF167 (GeneID 26001)","reagent no.":1,"cell gain with vemurafenib":0.35,"lactate per cell with vemurafenib":1.12}
{"Gene":"RNF215 (GeneID 200312)","reagent no.":1,"cell gain with vemurafenib":0.55,"lactate per cell with vemurafenib":1.23}
{"Gene":"ITPR1 (GeneID 3708)","reagent no.":1,"cell gain with vemurafenib":0.87,"lactate per cell with vemurafenib":1.13}
{"Gene":"ARHGAP6 (GeneID 395)","reagent no.":1,"cell gain with vemurafenib":"0.73 (active)","lactate per cell with vemurafenib":0.16}
{"Gene":"CFAP47 (GeneID 286464)","reagent no.":1,"cell gain with vemurafenib":0.24,"lactate per cell with vemurafenib":1.15}
{"Gene":"CFAP47 (GeneID 286464)","reagent no.":2,"cell gain with vemurafenib":1.05,"lactate per cell with vemurafenib":0.79}
{"Gene":"VPS28 (GeneID 51160)","reagent no.":1,"cell gain with vemurafenib":0.53,"lactate per cell with vemurafenib":0.88}
{"Gene":"DEFB128 (GeneID 245939)","reagent no.":1,"cell gain with vemurafenib":0.56,"lactate per cell with vemurafenib":1.23}
{"Gene":"NAA16 (GeneID 79612)","reagent no.":1,"cell gain with vemurafenib":0.92,"lactate per cell with vemurafenib":1.04}
{"Gene":"DRAM1 (GeneID 55332)","reagent no.":1,"cell gain with vemurafenib":0.91,"lactate per cell with vemurafenib":0.59}
{"Gene":"DNAAF1 (GeneID 123872)","reagent no.":1,"cell gain with vemurafenib":0.6,"lactate per cell with vemurafenib":1.13}
{"Gene":"PDE10A (GeneID 10846)","reagent no.":1,"cell gain with vemurafenib":0.52,"lactate per cell with vemurafenib":0.72}
{"Gene":"NLRP10 (GeneID 338322)","reagent no.":1,"cell gain with vemurafenib":0.76,"lactate per cell with vemurafenib":0.5}
{"Gene":"SPECC1 (GeneID 92521)","reagent no.":1,"cell gain with vemurafenib":0.83,"lactate per cell with vemurafenib":1.27}
{"Gene":"GNA11 (GeneID 2767)","reagent no.":1,"cell gain with vemurafenib":0.45,"lactate per cell with vemurafenib":1.31}
{"Gene":"PDZD2 (GeneID 23037)","reagent no.":1,"cell gain with vemurafenib":"0.5 (active)","lactate per cell with vemurafenib":0.45}
{"Gene":"OR5J2 (GeneID 282775)","reagent no.":1,"cell gain with vemurafenib":0.74,"lactate per cell with vemurafenib":0.82}

Called active, among the entries above:
{"Gene":"FANCM (GeneID 57697)","reagent no.":1,"cell gain with vemurafenib":"0.08 (active)","lactate per cell with vemurafenib":0.46}
{"Gene":"ARHGAP6 (GeneID 395)","reagent no.":1,"cell gain with vemurafenib":"0.73 (active)","lactate per cell with vemurafenib":0.16}
{"Gene":"PDZD2 (GeneID 23037)","reagent no.":1,"cell gain with vemurafenib":"0.5 (active)","lactate per cell with vemurafenib":0.45}
